These are yes or no findings as the source states them, for the method shown. In cells and extracts the contact can be indirect. Some results given as binding are weak or reduced against the parent protein; the word gives no strength. Each block holds one molecule with its values, some of them ahead of it.
Assays:
[1] = biological target: T1, Phosphoglycerate mutase family member 5 (PGAM5) (mouse (endogenous in hippocampal tissue)) (UniProt Q8BX10); test: co-IP; protein extracts from hippocampal tissue of KA-model mice in IP lysis buffer; incubated with anti-PGAM5 (Santa, sc515880), anti-PINK1 (Proteintech, 23274-1-AP) or rabbit IgG overnight at 4°C, then protein A/G agarose beads 2 h at 4°C; washed three times; Western blot
T1 sequence: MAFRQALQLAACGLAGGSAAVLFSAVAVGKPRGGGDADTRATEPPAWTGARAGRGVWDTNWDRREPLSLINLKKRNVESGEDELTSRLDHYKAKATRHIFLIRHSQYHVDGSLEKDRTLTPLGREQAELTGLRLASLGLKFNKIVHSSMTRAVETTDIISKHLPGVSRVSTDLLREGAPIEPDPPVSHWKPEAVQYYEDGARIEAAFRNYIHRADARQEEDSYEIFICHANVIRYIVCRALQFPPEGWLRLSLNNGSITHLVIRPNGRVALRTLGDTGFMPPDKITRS

By UniProt entry, the sequences of proteins in these tests, tags left out. Where a name states a change or a piece, a line headed by the entry shows the natural chain unless it says otherwise.
UniProt Q99MQ3: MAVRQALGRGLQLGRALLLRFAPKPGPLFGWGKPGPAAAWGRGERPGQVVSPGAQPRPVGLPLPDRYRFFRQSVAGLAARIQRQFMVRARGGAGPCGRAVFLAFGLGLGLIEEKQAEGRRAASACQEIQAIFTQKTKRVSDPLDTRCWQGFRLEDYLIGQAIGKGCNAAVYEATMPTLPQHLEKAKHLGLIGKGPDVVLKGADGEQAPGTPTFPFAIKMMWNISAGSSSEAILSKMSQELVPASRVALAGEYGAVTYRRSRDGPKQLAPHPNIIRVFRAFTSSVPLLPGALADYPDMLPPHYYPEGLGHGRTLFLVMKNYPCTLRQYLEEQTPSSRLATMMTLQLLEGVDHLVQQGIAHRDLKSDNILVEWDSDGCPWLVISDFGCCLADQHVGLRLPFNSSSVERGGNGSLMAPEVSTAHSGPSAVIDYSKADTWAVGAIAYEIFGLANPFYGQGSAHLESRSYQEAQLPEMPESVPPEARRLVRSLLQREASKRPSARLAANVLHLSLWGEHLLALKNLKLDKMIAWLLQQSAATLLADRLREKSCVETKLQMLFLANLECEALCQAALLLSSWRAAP

[2] = biological target: PTEN-induced putative kinase 1 (PINK1) (mouse (endogenous in hippocampal tissue)) (UniProt Q99MQ3); test: as above

- binding [1]: binds
Molecule: PTEN-induced putative kinase 1 (PINK1) (from UniProt Q99MQ3 78-580)

- binding [2]: binds
B1: Phosphoglycerate mutase family member 5 (PGAM5) (protein, UniProt Q8BX10 1-288)
chain: T1 sequence

— publication PMC9813404
